The supplement of paper PMC10849652
The other results are listed elsewhere or left out.

Protein sequences, listed by entry. Tags and fused reporters are not part of them. Lines headed by an entry give the natural chain unless they say otherwise; changes in a name come on top.
UniProt Q02161: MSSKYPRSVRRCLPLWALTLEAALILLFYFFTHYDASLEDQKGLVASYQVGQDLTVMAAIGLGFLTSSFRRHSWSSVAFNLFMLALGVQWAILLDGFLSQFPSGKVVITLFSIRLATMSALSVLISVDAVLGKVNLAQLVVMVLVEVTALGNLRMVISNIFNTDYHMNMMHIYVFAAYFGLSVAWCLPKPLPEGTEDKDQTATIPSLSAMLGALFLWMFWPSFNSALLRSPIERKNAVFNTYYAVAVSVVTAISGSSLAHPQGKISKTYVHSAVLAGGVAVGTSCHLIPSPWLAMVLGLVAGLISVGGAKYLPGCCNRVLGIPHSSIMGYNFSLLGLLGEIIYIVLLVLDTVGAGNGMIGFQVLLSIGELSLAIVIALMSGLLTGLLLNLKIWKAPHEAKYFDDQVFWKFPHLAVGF
UniProt P48380: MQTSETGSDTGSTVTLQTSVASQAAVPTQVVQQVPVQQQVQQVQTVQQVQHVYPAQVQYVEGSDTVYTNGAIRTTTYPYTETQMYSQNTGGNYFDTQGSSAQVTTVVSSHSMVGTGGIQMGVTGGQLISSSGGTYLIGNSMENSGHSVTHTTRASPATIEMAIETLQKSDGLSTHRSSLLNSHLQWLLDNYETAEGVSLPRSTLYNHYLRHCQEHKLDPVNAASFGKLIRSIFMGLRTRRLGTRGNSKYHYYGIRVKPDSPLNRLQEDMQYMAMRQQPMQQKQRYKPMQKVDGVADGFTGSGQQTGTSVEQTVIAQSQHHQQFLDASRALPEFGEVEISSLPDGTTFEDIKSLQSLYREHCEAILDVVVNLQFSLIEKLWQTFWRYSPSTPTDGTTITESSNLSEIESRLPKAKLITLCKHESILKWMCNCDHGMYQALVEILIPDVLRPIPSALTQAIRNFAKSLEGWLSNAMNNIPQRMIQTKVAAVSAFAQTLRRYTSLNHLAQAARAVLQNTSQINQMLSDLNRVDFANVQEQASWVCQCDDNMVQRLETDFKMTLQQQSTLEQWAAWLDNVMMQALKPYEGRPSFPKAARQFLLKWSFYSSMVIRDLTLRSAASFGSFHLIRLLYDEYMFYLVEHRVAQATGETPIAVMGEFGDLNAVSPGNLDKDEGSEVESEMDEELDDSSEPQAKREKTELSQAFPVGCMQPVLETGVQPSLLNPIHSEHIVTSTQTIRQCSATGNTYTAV
UniProt Q8NCN4: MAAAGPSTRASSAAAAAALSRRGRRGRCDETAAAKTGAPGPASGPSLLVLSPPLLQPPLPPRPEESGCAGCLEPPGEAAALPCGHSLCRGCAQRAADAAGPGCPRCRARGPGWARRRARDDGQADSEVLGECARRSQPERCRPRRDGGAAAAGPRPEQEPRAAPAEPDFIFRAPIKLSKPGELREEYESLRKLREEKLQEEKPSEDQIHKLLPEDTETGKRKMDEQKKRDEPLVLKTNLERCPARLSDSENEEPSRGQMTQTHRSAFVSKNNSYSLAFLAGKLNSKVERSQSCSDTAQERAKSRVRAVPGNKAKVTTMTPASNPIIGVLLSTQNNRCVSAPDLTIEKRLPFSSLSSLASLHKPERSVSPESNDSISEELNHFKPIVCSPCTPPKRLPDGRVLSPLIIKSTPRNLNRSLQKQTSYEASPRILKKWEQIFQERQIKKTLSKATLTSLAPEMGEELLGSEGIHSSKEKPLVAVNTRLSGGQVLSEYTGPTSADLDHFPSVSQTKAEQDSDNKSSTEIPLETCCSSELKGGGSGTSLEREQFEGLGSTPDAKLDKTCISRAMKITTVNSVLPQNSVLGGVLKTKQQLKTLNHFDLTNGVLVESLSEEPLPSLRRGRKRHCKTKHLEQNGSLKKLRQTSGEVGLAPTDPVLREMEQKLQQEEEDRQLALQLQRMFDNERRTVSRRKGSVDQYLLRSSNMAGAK
UniProt Q9Y3C5: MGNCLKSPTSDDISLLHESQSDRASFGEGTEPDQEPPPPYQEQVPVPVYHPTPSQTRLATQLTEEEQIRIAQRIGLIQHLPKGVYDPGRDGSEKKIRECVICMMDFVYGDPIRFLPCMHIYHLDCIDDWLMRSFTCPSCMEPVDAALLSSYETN
UniProt Q6R327, whole entry, looked up: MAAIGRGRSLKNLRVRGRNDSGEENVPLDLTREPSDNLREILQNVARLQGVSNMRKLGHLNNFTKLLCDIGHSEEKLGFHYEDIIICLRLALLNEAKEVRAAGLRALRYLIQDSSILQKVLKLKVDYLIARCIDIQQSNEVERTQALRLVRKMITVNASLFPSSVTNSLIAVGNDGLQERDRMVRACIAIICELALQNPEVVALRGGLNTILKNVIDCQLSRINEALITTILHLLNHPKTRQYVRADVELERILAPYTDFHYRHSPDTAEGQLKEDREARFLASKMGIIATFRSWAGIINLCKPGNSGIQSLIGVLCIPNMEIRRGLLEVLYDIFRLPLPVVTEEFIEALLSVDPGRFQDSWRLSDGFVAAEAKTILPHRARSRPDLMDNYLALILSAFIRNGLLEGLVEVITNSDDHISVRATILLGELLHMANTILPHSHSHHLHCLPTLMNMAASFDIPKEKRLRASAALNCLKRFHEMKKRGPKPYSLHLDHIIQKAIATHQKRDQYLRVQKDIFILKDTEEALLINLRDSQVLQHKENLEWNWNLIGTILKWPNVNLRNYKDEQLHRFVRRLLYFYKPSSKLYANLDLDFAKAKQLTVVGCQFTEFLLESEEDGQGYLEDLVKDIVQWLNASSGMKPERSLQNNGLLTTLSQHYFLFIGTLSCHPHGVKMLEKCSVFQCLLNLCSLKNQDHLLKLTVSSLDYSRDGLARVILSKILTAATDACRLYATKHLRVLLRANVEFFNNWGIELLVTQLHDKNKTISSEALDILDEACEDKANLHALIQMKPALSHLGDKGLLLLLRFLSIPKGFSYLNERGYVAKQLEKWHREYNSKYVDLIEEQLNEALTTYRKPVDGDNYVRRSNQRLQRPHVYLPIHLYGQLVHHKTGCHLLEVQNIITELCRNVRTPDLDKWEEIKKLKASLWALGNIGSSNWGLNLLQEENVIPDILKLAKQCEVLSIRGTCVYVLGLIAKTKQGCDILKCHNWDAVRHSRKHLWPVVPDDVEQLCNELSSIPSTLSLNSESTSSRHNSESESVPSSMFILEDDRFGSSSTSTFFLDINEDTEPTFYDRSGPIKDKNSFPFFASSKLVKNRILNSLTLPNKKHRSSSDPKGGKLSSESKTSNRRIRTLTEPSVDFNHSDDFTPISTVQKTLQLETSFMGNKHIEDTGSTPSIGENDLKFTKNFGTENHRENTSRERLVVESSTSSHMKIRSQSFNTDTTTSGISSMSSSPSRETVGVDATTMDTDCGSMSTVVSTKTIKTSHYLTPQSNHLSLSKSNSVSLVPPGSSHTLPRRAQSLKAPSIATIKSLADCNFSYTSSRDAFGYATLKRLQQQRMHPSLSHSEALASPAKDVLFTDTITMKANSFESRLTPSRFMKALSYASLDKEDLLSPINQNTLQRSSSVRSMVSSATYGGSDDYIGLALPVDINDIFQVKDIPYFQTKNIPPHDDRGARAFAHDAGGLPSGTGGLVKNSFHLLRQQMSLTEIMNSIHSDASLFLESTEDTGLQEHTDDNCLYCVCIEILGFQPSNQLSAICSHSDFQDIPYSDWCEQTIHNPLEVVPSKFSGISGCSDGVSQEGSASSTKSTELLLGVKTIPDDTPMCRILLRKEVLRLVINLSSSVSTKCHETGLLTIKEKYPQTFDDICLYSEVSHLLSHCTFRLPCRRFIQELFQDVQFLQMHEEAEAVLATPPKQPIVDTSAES
UniProt Q96E14: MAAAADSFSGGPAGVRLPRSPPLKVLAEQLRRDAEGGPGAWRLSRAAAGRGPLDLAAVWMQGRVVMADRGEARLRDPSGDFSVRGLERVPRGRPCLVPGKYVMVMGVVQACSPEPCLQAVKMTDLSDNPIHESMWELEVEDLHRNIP
UniProt P35251: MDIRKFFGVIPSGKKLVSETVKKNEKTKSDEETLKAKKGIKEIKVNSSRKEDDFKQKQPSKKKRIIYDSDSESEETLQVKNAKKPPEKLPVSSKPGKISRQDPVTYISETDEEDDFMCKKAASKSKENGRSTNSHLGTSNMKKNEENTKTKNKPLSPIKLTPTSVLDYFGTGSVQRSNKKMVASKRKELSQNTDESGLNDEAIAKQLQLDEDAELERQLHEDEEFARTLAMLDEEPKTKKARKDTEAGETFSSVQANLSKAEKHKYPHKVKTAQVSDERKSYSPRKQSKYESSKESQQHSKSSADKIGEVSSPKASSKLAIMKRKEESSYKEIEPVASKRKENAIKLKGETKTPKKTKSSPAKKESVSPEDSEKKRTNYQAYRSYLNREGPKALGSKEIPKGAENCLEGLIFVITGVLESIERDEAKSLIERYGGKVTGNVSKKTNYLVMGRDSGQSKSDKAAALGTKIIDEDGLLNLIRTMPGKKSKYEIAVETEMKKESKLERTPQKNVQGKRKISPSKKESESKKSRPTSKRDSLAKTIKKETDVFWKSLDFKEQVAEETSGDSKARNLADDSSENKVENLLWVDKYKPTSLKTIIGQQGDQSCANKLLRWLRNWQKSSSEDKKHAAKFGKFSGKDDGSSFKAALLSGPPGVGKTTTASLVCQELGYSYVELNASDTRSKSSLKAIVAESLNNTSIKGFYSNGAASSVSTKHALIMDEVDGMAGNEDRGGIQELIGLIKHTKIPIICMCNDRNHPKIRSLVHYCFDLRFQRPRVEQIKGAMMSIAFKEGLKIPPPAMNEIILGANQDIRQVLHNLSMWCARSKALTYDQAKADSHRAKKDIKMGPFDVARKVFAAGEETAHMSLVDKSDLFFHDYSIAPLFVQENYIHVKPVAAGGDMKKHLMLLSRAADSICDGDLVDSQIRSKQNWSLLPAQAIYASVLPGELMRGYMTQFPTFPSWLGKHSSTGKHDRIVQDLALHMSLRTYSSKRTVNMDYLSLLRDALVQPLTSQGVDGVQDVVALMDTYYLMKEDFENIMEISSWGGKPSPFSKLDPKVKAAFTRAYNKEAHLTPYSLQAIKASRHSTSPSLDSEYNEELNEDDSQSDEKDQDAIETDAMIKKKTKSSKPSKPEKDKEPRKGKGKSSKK
UniProt Q15493: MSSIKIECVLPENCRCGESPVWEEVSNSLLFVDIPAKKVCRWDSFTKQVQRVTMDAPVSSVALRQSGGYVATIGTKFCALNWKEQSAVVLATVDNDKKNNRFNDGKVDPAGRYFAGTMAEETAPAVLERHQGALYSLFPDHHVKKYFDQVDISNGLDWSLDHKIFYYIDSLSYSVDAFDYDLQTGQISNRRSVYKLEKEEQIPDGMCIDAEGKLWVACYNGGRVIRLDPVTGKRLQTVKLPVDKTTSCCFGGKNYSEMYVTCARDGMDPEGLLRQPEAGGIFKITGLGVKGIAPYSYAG
UniProt Q9ULI2: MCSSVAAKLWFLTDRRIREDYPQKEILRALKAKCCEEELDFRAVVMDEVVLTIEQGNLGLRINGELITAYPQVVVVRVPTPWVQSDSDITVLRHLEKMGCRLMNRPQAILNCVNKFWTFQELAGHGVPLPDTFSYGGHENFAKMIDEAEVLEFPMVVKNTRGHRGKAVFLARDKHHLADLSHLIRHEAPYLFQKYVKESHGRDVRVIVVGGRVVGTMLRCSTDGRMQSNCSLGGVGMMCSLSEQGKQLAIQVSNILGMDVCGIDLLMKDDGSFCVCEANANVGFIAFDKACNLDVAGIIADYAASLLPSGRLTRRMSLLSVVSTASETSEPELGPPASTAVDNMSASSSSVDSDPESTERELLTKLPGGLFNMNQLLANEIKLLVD
UniProt Q05823: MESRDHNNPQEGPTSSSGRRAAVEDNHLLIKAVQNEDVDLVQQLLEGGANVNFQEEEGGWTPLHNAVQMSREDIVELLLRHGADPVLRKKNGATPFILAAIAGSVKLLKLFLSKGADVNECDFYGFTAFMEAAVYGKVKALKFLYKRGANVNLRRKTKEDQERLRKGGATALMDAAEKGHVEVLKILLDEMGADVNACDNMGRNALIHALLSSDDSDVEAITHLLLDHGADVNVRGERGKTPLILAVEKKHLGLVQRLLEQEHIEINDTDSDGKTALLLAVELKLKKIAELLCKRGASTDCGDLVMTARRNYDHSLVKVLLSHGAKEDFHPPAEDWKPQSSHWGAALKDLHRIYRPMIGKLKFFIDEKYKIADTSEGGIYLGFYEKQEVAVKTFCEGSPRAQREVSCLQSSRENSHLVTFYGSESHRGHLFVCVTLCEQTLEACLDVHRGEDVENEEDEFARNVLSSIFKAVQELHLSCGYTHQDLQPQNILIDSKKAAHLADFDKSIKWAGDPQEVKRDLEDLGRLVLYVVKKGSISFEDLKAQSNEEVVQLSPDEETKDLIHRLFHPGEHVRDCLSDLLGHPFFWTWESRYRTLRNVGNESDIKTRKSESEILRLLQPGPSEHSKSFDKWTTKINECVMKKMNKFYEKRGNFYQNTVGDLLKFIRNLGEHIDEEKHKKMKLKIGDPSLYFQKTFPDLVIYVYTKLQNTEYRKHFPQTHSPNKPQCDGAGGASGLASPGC

How the values were obtained:
Test in all cases: log2 fold change, soluble protein after heating vs DMSO (PISA); higher = thermal stabilisation; K562 cells, 10 uM, 30 min; active = over 0.2 and 3.5 SD of the protein, either way, in both replicates (recomputed)
bafetinib = compound: Cc1ccc(NC(=O)c2ccc(CN3CC[C@H](N(C)C)C3)c(C(F)(F)F)c2)cc1Nc1nccc(-c2cncnc2)n1 [bafetinib]
How it was run: (§1)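 Soluble protein was quantified by TMTpro 16plex LC-MS/MS after channel sums were equalised. It was obtained as the supernatant after 21,000xg for 90 min from pooled aliquots of K562 cells (2×10^6 cells/mL, 10 μM compound, 30 min) heated for 3 min across 48°C-58°C and extracted in PBS with 0.5% NP-40 at 4°C. Thermal stability values are relative to control samples and come from duplicates. They are given as log2 fold changes.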

dasatinib = compound: Cc1nc(Nc2ncc(C(=O)Nc3c(C)cccc3Cl)s2)cc(N2CCN(CCO)CC2)n1 [dasatinib]
How it was run: as §1

[1] = compound: Cn1cc(-c2ccc3c(c2)CCN3C(=O)Cc2cccc(C(F)(F)F)c2)c2c(N)ncnc21
How it was run: as §1

nilotinib = compound: Cc1cn(-c2cc(NC(=O)c3ccc(C)c(Nc4nccc(-c5cccnc5)n4)c3)cc(C(F)(F)F)c2)cn1 [nilotinib]
How it was run: as §1

[2] = compound: Cc1nc(Nc2n[nH]c3c2CN(C(=O)N[C@H](CN(C)C)c2ccccc2)C3(C)C)c2sccc2n1
How it was run: as §1

[3] = compound: Cc1ncc(-c2ccnc(Nc3ccc(S(C)(=O)=O)cc3)n2)n1C(C)C
How it was run: as §1

[4] = compound: Cn1cc(-c2ccc3nnc(C(F)(F)c4ccc5ncccc5c4)n3n2)cn1
How it was run: as §1

mubritinib = compound: FC(F)(F)c1ccc(/C=C/c2nc(COc3ccc(CCCCn4ccnn4)cc3)co2)cc1 [mubritinib]
How it was run: as §1

[5] = compound: Cc1cccc(CC(=O)N2CCc3c2ccc(-c2cn(C)c4ncnc(N)c24)c3F)n1
How it was run: as §1

tipifarnib = compound: Cn1cncc1[C@@](N)(c1ccc(Cl)cc1)c1ccc2c(c1)c(-c1cccc(Cl)c1)cc(=O)n2C [tipifarnib]
How it was run: as §1

Measured: log2 fold change

RNF13 (UniProt O43567)
inactive: bafetinib -0.118 | dasatinib 0.07 | [1] -0.004

RMDN2 isoform 2 (UniProt Q96LZ7)
inactive: nilotinib -0.556 | [2] 0.661 | [3] -0.115 | [4] -0.104 | mubritinib -0.231

RIOX1 (UniProt Q9H6W3)
inactive: [5] -0.274

RBM6 (UniProt P78332)
inactive: [5] -0.048 | nilotinib 0.062 | [2] -0.109 | dasatinib 0.025 | [3] -0.194 | [1] -0.052 | tipifarnib 0.028 | mubritinib -0.072

RGP1 (UniProt Q92546)
inactive: bafetinib -0.134 | nilotinib -0.312 | [2] -0.002 | [3] -0.104 | [1] -0.036 | [4] -0.245 | mubritinib 0.06

RCL1 (UniProt Q5VZU2)
inactive: dasatinib 0.149 | [4] 0.132

RHD (UniProt Q02161)
inactive: nilotinib 0.116 | [2] -0.128 | [3] 0.122 | [1] -0.058 | tipifarnib -0.104

RC3H2 (UniProt Q9HBD1)
inactive: [5] -0.072 | tipifarnib 0.107

RFX3 (UniProt P48380)
inactive: bafetinib -0.135 | tipifarnib -0.097

RC3H1 (UniProt Q5TC82)
inactive: [5] -0.343 | dasatinib -0.108 | [1] -0.09 | tipifarnib 0.013 | mubritinib -0.215

RNF111 isoform 3 (UniProt Q6ZNA4)
inactive: [5] -0.088 | nilotinib 0.028 | [2] -0.093 | [3] -0.044

RNF169 (UniProt Q8NCN4)
inactive: [5] 0.063 | dasatinib 0.028 | [1] 0.041 | tipifarnib 0.224

RFXANK (UniProt O14593)
inactive: [5] 0.068

RIPOR1 isoform 4 (UniProt Q6ZS17)
inactive: [4] -0.283

REX1BD (UniProt Q96EN9)
inactive: [1] -0.042

RILPL1 (UniProt Q5EBL4)
inactive: dasatinib -0.429 | [1] 0.101 | [4] -0.017 | mubritinib 0.132

RNF220 isoform 3 (UniProt Q5VTB9)
inactive: tipifarnib -0.282

RNF115 (UniProt Q9Y4L5)
inactive: nilotinib -0.015 | [2] -0.07 | [3] -0.007

RNF11 (UniProt Q9Y3C5)
inactive: [4] 0.019

RIF1 (UniProt Q5UIP0)
inactive: [5] -0.099 | nilotinib -0.145 | [2] -0.134 | dasatinib -0.13 | [3] 0.076 | [1] -0.128 | [4] -0.131 | tipifarnib 0.411

RECQL5 (UniProt O94762)
inactive: [5] -0.047 | dasatinib -0.305 | [1] -0.078

RFWD3 (UniProt Q6PCD5)
inactive: [1] 0.17 | tipifarnib 0.371

RICTOR isoform 3 (UniProt Q6R327)
inactive: [5] 0.141 | nilotinib -0.102 | [2] 0.176 | dasatinib -0.044 | [3] -0.023 | tipifarnib -0.052

RIT1 isoform 3 (UniProt Q92963)
inactive: [5] -0.074

Two entries drawn at random from those above:
RICTOR isoform 3 (UniProt Q6R327)
inactive: [5] 0.141 | nilotinib -0.102 | [2] 0.176 | dasatinib -0.044 | [3] -0.023 | tipifarnib -0.052

RIF1 (UniProt Q5UIP0)
inactive: [5] -0.099 | nilotinib -0.145 | [2] -0.134 | dasatinib -0.13 | [3] 0.076 | [1] -0.128 | [4] -0.131 | tipifarnib 0.411

Continuation:

RERE (UniProt Q9P2R6)
inactive: bafetinib 0 | nilotinib 0.018 | [2] -0.077 | [3] 0 | [4] 0.017 | mubritinib -0.05

RNF130 (UniProt Q86XS8)
inactive: bafetinib -0.034 | [1] 0.146 | tipifarnib 0.1 | mubritinib 0.156

RMI2 (UniProt Q96E14)
inactive: dasatinib -0.111 | [1] 0.025 | [4] -0.151 | tipifarnib -0.299 | mubritinib 0.144

RNF166 (UniProt Q96A37)
inactive: [5] 0.007 | dasatinib 0.044 | [1] 0.003 | [4] -0.031 | tipifarnib -0.064 | mubritinib 0.077

RFC1 (UniProt P35251)
inactive: [5] 0.119 | dasatinib -0.061 | [1] 0.027 | [4] -0.033

RGN (UniProt Q15493)
inactive: nilotinib 0.036 | [2] 0.136 | [3] -0.04 | tipifarnib -0.032

RIMKLB (UniProt Q9ULI2)
inactive: bafetinib 0.003 | nilotinib 0.062 | [2] -0.118 | [3] -0.012 | tipifarnib 0.038 | mubritinib -0.012

RHOXF2B (UniProt P0C7M4)
inactive: tipifarnib 0.073

RCBTB1 (UniProt Q8NDN9)
inactive: bafetinib 0.147 | dasatinib -0.081 | [1] -0.071

RLIM (UniProt Q9NVW2)
inactive: [5] -0.065 | dasatinib -0.03 | [1] 0.259 | [4] -0.068 | tipifarnib -0.011

RNASEL (UniProt Q05823)
inactive: [5] 0.058 | [4] 0.02 | mubritinib -0.434

RNF146 (UniProt Q9NTX7)
inactive: bafetinib -0.114 | dasatinib -0.028 | [1] 0.049 | [4] -0.132 | tipifarnib -0.083
